{"sequences": {"note": "Amino acid sequences for entries named in this document (tags omitted). A change or cut given only in a name is not applied to a line headed by its entry. Residues count along the entry.", "UniProt Q16548, 1-153": "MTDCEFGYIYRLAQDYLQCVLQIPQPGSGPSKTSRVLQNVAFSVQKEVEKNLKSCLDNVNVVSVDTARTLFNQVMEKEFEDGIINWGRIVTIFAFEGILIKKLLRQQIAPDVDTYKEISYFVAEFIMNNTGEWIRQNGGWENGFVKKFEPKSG", "UniProt Q07820, 172-327, stated change not applied": "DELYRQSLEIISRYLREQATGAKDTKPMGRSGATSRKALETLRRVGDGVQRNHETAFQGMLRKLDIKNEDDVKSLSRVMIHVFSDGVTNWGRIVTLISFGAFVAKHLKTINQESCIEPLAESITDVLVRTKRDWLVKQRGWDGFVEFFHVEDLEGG", "UniProt Q07817, 1-212": "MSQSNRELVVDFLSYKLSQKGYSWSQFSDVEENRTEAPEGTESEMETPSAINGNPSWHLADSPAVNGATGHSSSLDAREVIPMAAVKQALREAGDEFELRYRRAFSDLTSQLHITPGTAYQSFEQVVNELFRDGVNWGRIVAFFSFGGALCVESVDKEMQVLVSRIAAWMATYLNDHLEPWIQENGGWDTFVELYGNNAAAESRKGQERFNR"}, "source": "patent US9926306B2", "about": "“Inhibition of MCL-1 and/or BFL-1/A1” (Dana-Farber Cancer Institute, Inc., priority 2012, dated 2018)", "key": {"[1]": {"test_system": "MCL-1-rescued p185+Arf−/−Mcl-1−/− CML cells", "experiment": "Caspase 3/7 activation (Caspase-Glo), MCL-1-dependent leukemia cells", "format": "cell-based, murine", "conditions": "MCL-1-dependent cells, 8 h"}, "BFL-1/A1ΔC": {"target": "BFL-1/A1ΔC (Homo sapiens (Human), UniProt Q16548)", "experiment": "Competitive fluorescence polarization binding assay, BFL-1/A1 (FITC-BID BH3)", "conditions": "competition with FITC-BID BH3", "source_text": "FIG. 19A and FIG. 19B are graphs that show potent targeting of the anti-apoptotic protein BFL-1/A1 by MIM1. […] Thus, the complex between FITC-BID BH3 and BFL-1/A1ΔC was employed in a competitive FP assay to monitor the capacity of MIM1 to target BFL-1/A1ΔC."}, "MCL-1ΔNΔC": {"target": "MCL-1ΔNΔC (Homo sapiens (Human), UniProt Q07820)", "experiment": "BAX-mediated liposomal release assay, suppression by MCL-1", "format": "biochemical", "method": "(§1) Liposomes were prepared and release assays performed as previously described^46,47. Liposomal composition reflects a mixture of the following molar percentages of lipids (Avanti Polar Lipids): phosphatidylcholine, 48%; phosphatidylethanolamine, 28%; phosphatidylinositol, 10%; dioleoyl phosphatidylserine, 10%; and tetraoleoyl cardiolipin, 4%. Aliquots of mixed lipids (1 mg total) are stored in glass at −20° C. under nitrogen, and before use, resuspended in liposome assay buffer (10 mM HEPES, 200 mM KCl, 1 mM MgCl2, pH 7) containing 12.5 mM of the fluorescent dye ANTS (8-aminonaphthalene-1,3,6-trisulfonic acid, disodium salt) and 45 mM of the quencher DPX (p-xylene-bis-pyridinium bromide. The resulting slurry is vortexed for 10 min and freeze-thawed five times in liquid nitrogen and a 40° C. water bath, respectively. The solution is then passed through an Avanti Mini-Extruder Set (#610000) equipped with a 100 nm filter, followed by passage through a Sepharose column (GE Healthcare) to remove residual ANTS/DPX."}, "BCL-XLΔC": {"target": "BCL-XLΔC (Homo sapiens (Human), UniProt Q07817)", "experiment": "BAX-mediated liposomal release assay, suppression by BCL-XL", "format": "biochemical", "method": "as §1"}, "[2]": {"test_system": "BCL-XL-rescued p185+Arf−/−Mcl-1−/− CML cells", "experiment": "Cell viability (CellTiter-Glo), BCL-XL-dependent leukemia cells", "format": "cell-based, murine"}}, "note": "At least one compound was matched to its structure with a doubt left.", "data": [{"molecule": "Cc1cs/c(=N\\C2CCCCC2)n1/N=C/c1ccc(O)c(O)c1O", "note": "[MIM1, 4-((E)-(((Z)-2-(cyclohexylimino)-4-methylthiazol-3(2H)-yl)imino)methyl)benzene-1,2,3-triol]", "values": [{"measurement": "caspase 3/7 activation", "setting": "[1]", "result": "dose-dependent induction of caspase 3/7 activity"}, {"measurement": "BFL-1/A1ΔC binding activity", "setting": "BFL-1/A1ΔC", "result": "effective competition in the nanomolar range"}, {"measurement": "blockade of MCL-1ΔNΔC suppression of tBID-induced BAX activation", "setting": "MCL-1ΔNΔC", "result": "preventing BAX suppression by MCL-1ΔNΔC"}, {"measurement": "blockade of BCL-XLΔC suppression of tBID-induced BAX activation", "setting": "BCL-XLΔC", "result": "not by BCL-XLΔC"}, {"measurement": "effect on viability", "setting": "[2]", "result": "little to no effect"}]}]}
